From publication PMC9004346 (Chemical Communications (Cambridge, England), 2022)
Plain letter strings leave the end groups untold. Strings that start with PEPTIDE1 are HELM notation: dots part the residues, brackets hold end groups and non-standard residues. *1 amine or outer side, *2 acyl side, *3 side chain or, on linkers, in order; H or OH if unused. Bridges are numbered along the chain shown (N, C = ends). Side-chain parts run from the residue outwards. [ ]: non-standard residue; d: D form. The star is where a group is joined. Trp(2-yl) = O=C([C@H](Cc1c([*:3])[nH]c2ccccc12)N[*:1])[*:2]; X1 = CN(CC(=O)O)c1nc(CC[*:1])cc(CC[*:2])n1; Lauroyl = CCCCCCCCCCCC(=O)*; hCys = N[C@@H](CCS)C(=O)O; AEEA = NCCOCCOCC(=O)O

Test: general procedure: Fmoc solid-phase peptide synthesis; Merck LL MBHA Rink amide resin (0.33 mmol/g manual; 0.46 mmol/g automated); HATU/DIPEA (manual); DIC/Oxyma pure (automated)
Conditions: for final HPLC purity: LCMS and HPLC analysis
[1] = cyclisation step, thioether ring

Substance	final HPLC purity (whole synthesis)	final HPLC purity (cyclisation step)	also measured
CRLYGFKC	96%		
GRKKRRQRRRPPQ(Ahx)(Ahx)(hC)RLYGFKW	62%		
Ac-RLYGFKWH-NH2	96%		
Ac-[hCys]RLYGFKW-NH2 (SMILES CC(=O)N[C@@H](CCS)C(=O)N[C@@H](CCCNC(=N)N)C(=O)N[C@@H](CC(C)C)C(=O)N[C@@H](Cc1ccc(O)cc1)C(=O)NCC(=O)N[C@@H](Cc1ccccc1)C(=O)N[C@@H](CCCCN)C(=O)N[C@@H](Cc1c[nH]c2ccccc12)C(N)=O)	95%		
Ac-CRLYGFKC-NH2 (linker 1-8 via X1; SMILES CC(=O)N[C@H]1CSCCc2cc(nc(N(C)CC(=O)O)n2)CCSC[C@@H](C(N)=O)NC(=O)[C@H](CCCCN)NC(=O)[C@H](Cc2ccccc2)NC(=O)CNC(=O)[C@H](Cc2ccc(O)cc2)NC(=O)[C@H](CC(C)C)NC(=O)[C@H](CCCNC(=N)N)NC1=O)		74%	cyclisation yield (cyclisation step): 17%
Ac-RLYGFKW-NH2	93%		
RRR(Ahx)(Ahx)(hC)RLYGFKW	98%		
PEPTIDE1{[ac].C.R.L.Y.G.F.K.C.[am]}|CHEM1{[C6_CH2]}$PEPTIDE1,CHEM1,2:R3-1:R1|PEPTIDE1,CHEM1,9:R3-1:R2$$$V2.0		92%	cyclisation yield (cyclisation step): 19%
Ac-[hCys]RLYGFK([AEEA-Lauroyl])[Trp(2-yl)]-NH2 (thioether 1-8; SMILES CCCCCCCCCCCC(=O)NCCOCCOCC(=O)NCCCC[C@@H]1NC(=O)[C@H](Cc2ccccc2)NC(=O)CNC(=O)[C@H](Cc2ccc(O)cc2)NC(=O)[C@H](CC(C)C)NC(=O)[C@H](CCCNC(=N)N)NC(=O)[C@@H](NC(C)=O)CCSc2[nH]c3ccccc3c2C[C@@H](C(N)=O)NC1=O)		92%	
(LA)(PEG)(hC)RLYGFKW	90%		
(hC)RLYGFK(PEG-(LA))W	98%		
GRKKRRQRRRPPQ(Ahx)(Ahx)(hC)C9RLYGFKWC9			final HPLC purity [1]: >99%
(PEG)(hC)C3RLYGFKWC3			final HPLC purity [1]: 98%
PEPTIDE1{[ac].G.[Aza].R.L.Y.G.F.K.W.H.[Aza].G.G.[am]}$$$$V2.0	97%		
(hC)RLYGFK(PEG-Ac)W	97%		
PEPTIDE1{[ac].C.R.L.Y.G.F.K.C.[am]}|CHEM1{[C5_mXylene]}$PEPTIDE1,CHEM1,2:R3-1:R1|PEPTIDE1,CHEM1,9:R3-1:R2$$$V2.0		95%	
GRKKRRQRRRPPQ(Ahx)(Ahx)	98%		
CRLYGFKW	95%		
Ac-CRLYGFK[Trp(2-yl)]-NH2 (thioether 1-8; SMILES CC(=O)N[C@H]1CSc2[nH]c3ccccc3c2C[C@@H](C(N)=O)NC(=O)[C@H](CCCCN)NC(=O)[C@H](Cc2ccccc2)NC(=O)CNC(=O)[C@H](Cc2ccc(O)cc2)NC(=O)[C@H](CC(C)C)NC(=O)[C@H](CCCNC(=N)N)NC1=O)		94%	cyclisation yield (cyclisation step): 25%
RRR(Ahx)(Ahx)(hC)C9RLYGFKWC9			final HPLC purity [1]: 99%
Ac-RLYGFK-NH2	95%		
Ac-LYGFKW-NH2	97%		
(PEG)(hC)RLYGFKW	86%		
Ac-[hCys]RLYGFK([AEEA-Ac])[Trp(2-yl)]-NH2 (thioether 1-8 (inferred); SMILES CC(=O)NCCOCCOCC(=O)NCCCC[C@@H]1NC(=O)[C@H](Cc2ccccc2)NC(=O)CNC(=O)[C@H](Cc2ccc(O)cc2)NC(=O)[C@H](CC(C)C)NC(=O)[C@H](CCCNC(=N)N)NC(=O)[C@@H](NC(C)=O)CCSc2[nH]c3ccccc3c2C[C@@H](C(N)=O)NC1=O)		>99%	
JC3RLYGFKXC3			final HPLC purity (cyclisation step, cyclic): 96%; cyclisation yield (cyclisation step, cyclic): 3%
JC2RLYGFKXC2			final HPLC purity (cyclisation step, cyclic): 98%; cyclisation yield (cyclisation step, cyclic): 19%
Ac-[hCys]RLYGFK[Trp(2-yl)]-NH2 (thioether 1-8; SMILES CC(=O)N[C@H]1CCSc2[nH]c3ccccc3c2C[C@@H](C(N)=O)NC(=O)[C@H](CCCCN)NC(=O)[C@H](Cc2ccccc2)NC(=O)CNC(=O)[C@H](Cc2ccc(O)cc2)NC(=O)[C@H](CC(C)C)NC(=O)[C@H](CCCNC(=N)N)NC1=O)		97%	
PEPTIDE1{[ac].C.R.L.Y.G.F.K.C.[am]}|CHEM1{[C4_acetone]}$PEPTIDE1,CHEM1,2:R3-1:R1|PEPTIDE1,CHEM1,9:R3-1:R2$$$V2.0		90%	cyclisation yield (cyclisation step): 8%
{Lauroyl-AEEA}-[hCys]RLYGFK[Trp(2-yl)]-NH2 (thioether 1-8; SMILES CCCCCCCCCCCC(=O)NCCOCCOCC(=O)N[C@H]1CCSc2[nH]c3ccccc3c2C[C@@H](C(N)=O)NC(=O)[C@H](CCCCN)NC(=O)[C@H](Cc2ccccc2)NC(=O)CNC(=O)[C@H](Cc2ccc(O)cc2)NC(=O)[C@H](CC(C)C)NC(=O)[C@H](CCCNC(=N)N)NC1=O)		99%	
